This is an account of results in patent publication US20150307883.

For data set [1], the target named is ErbB-2 (HER2), native (Homo sapiens) (UniProt P04626). The data set is described as follows: pull-down. The note with it: protein in an extract, label: biotin, single-stranded DNA.
Data set [2] has as its target ErbB-2 (HER2), cell surface on N87 cells (Homo sapiens) (UniProt P04626). The data set is described as follows: flow cytometry. The note with it: 1 uM, 4 C, 30 min, protein on the cell surface, protein details: endogenous, label: biotin, single-stranded DNA.
Data set [3] has the same target. Nature of the data set: activity in cells. The note with it: protein on the cell surface, protein details: endogenous, single-stranded DNA.
In data set [4] the target is ErbB-1 (EGFR) (Homo sapiens) (UniProt P00533). Nature of the data set: pull-down. Conditions: A431 extract; detection with ErbB-2 kinase domain antiserum; protein in an extract; protein details: endogenous, overexpressed in A431 cell extract; label: biotin; single-stranded DNA.
Data set [5] addresses ErbB-2 (HER2), native (Homo sapiens) (UniProt P04626). Nature of the data set: ELONA. Conditions: 0-100 nM titration on antibody-captured ErbB-2; competed by unlabelled 2-2(t) (FIG. 2B); also positive in dot blot and pull-down, improved over monomer (FIG. 4A, 4C); protein in an extract; label: biotin; single-stranded DNA; variant of 2-2.
Data set [6] shares this target. The data set is described as follows: binding assay. The note with it: double immunoblot of N87 extract, 100 nM aptamer; protein in an extract; label: biotin; single-stranded DNA.

For some assays here: At least one result comes from cells or an extract, where the contact may be indirect. For some assays here: For at least one entry, the source does not settle the construct or the ends of the probe. For some assays here: No signal at the amounts used counts as a negative.

Turning to AGATTGCACTTACTATCT, the binding result in data set [1] (control primer, negative in double immunoblot at 100 nM and in pull-down) is recorded as “no binding”.
On to “AGATTGCACTTACTATCTAGATTGCACTTACTATCTAGATTGCACTTACTATCT [PR(t) trimeric control primer (identity of primer inferred)]”, for which the binding result in data set [1] and in data set [2] was “no binding” in each case. Also, the “functional effect of the aptamer” value in data set [3] (no effect on ErbB-2 stability or N87 proliferation at 10 uM) is reported as “not active”.
Take GCAGCGGTGTGGGG [2-2]: the binding result in data set [4] is recorded as “no binding”; in data set [1] (pull-down from N87 extract, 4 C, also positive in double immunoblot at 100 nM, very faint or no signal in dot blot (FIG. 4A)), “binds”.
Regarding “GCAGCGGTGTGGGGGCAGCGGTGTGGGGGCAGCGGTGTGGGG [2-2(t) trimeric aptamer]”, the binding result is reported as “binds” in data set [5] and “binds” in data set [2] (saline with 0.1% albumin, variant of 2-2). Moreover, the “functional effect of the aptamer” value in data set [3] (induces ErbB-2 internalization and lysosomal degradation, inhibits N87 proliferation at 10 uM, variant of 2-2) is given as “active”.
As for GGGCTGGGGTGACGT [B212], the binding result in data set [6] is “binds”.
In the case of GGGCTGGTGTGGCGG [2-1], the binding result in data set [6] is on record as “binds”.
